Measured values reported in US5932541A, “Method of adjusting the circadian rhythm of a mammal” (Gruenenthal GmbH, priority 1998, dated 1999).

Tested on: hamsters
Experiment: Visual observation of overt behavior for two hours post-injection
Type: in vivo, hamster (Mesocricetus auratus)
Experimental: Animals were maintained initially in a 14:10 hour light:dark cycle for 7-10 days, then transferred to constant dim red lighting (RR) conditions for the remainder of the experiment (40-60 days). After free-running for 7 days in dim red lighting, animals either received Montirelin or vehicle intraperitoneally. The daily onset of wheel-running activity was defined as circadian time 12 (CT 12), and this time was used as a reference point in determining appropriate circadian injection times. The test animals were divided into eight groups of three animals each, and intraperitoneal injections of the active compound at dosage levels of 10 or 20 mg/kg or of the vehicle alone were administered to respective test groups at circadian time 3 (CT 3) or circadian time 16 (CT 16). The order of injections and time points was randomized. An additional 4 animals maintained in similar lighting conditions were visually observed for two hours post-injection of Montirelin (10 or 20 mg/kg) to determine any overt behavioral effects exerted by this compound. A total of 9 injections were made for each of the eight treatment groups.

CC1SCC(C(=O)N[C@@H](Cc2c[nH]cn2)C(=O)N2CCC[C@H]2C(N)=O)NC1=O (stereo partly drawn) [Montirelin, 6-methyl-5-oxo-3-thiomorpholinylcarbonyl-L-histidyl-L-prolinamide]
share of observation period apparently asleep (10 mg/kg i.p. at CT 3 (drug and vehicle animals alike)): 90% | wheel running activity, share of study period (10 mg/kg i.p. at CT 16, both drug and vehicle groups): approximately 55% | persistence of induced behaviors at end of two hour observation period (20 mg/kg i.p.): continued to show Montirelin-induced behaviors | time behavioral effects first noted post-injection (20 mg/kg i.p.): 25 min | time of maximal behavioral effects after drug administration (20 mg/kg i.p.): 80 min | time on running wheel, share of observation period (20 mg/kg i.p., either circadian time, vehicle 0% (CT 3) and 52% (CT 16)): approx. 5%
